Results are given in words; binding and its absence hold for the method and conditions named. Some binding calls cover weakened binding; strength is not graded here.
How the values were obtained:
[1] = target: amyloid plaques of brains from AD patients (human) (UniProt P05067); test: immunohistochemistry, paraffin sections of human brain pretreated with formic acid
[2] = target: Amyloid Beta (antigen of the Amyloid Beta ELISA) (UniProt P05067); test: Amyloid Beta ELISA, conditioned medium from transient transfection
[3] = target: Amyloid Beta (antigen of the Amyloid Beta ELISA) (UniProt P05067); test: Amyloid Beta ELISA, antibody purified from stable NS0 cell line
[4] = target: T1, peptide 12 of the first library (aa 12-20 of Aβ); test: ELISA on biotinylated peptides on streptavidin plates, hC2 at 200 ng/ml
T1 sequence (peptide, biotinylated): VHHQKLVFF

By UniProt entry, the sequences of proteins in these tests, tags left out. Residues count along the entry.
UniProt P05067, residues 672-713: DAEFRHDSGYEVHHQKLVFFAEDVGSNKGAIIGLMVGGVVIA

[5] = target: T2, peptide 16 of the first library (aa 16-24 of Aβ); test: as above
T2 sequence (peptide, biotinylated): KLVFFAEDV

[6] = target: T3, peptide 14 of the first library (aa 14-22 of Aβ); test: as above
T3 sequence (peptide, biotinylated): HQKLVFFAE

[7] = target: T4, peptide 15 of the first library (aa 15-23 of Aβ); test: as above
T4 sequence (peptide, biotinylated): QKLVFFAED

[8] = target: T5, peptide 13 of the first library (aa 13-21 of Aβ); test: as above
T5 sequence (peptide, biotinylated): HHQKLVFFA

[9] = target: T6, peptide A15 of the second library (aa 12-20 of Aβ, aa 15 to alanine); test: ELISA on biotinylated alanine-substituted peptides, hC2 at 200 ng/ml
T6 sequence (peptide, biotinylated): VHHAKLVFF

[10] = target: T7, peptide A18 of the second library (aa 12-20 of Aβ, aa 18 to alanine); test: as above
T7 sequence (peptide, biotinylated): VHHQKLAFF

[11] = target: T8, peptide p14-22 A22 of the third library (aa 14-22 of Aβ, aa 22 to alanine); test: ELISA on biotinylated peptides of the third library, hC2 at 200 ng/ml
T8 sequence (peptide, biotinylated): HQKLVFFAA

[12] = target: T9, peptide p13-21 G21 of the third library (aa 13-21 of Aβ, aa 21 to glycine); test: as above
T9 sequence (peptide, biotinylated): HHQKLVFFG

B1: chimeric antibody C2 ChVH AF/ChVK (antibody, human IgG4 S228P, kappa, V domains shown)
VH: EVQLVESGGGLVQPGGSLKLSCAASGFTFSSYGMSWVRQTPDKRLELVASINSNGGSTYYPDSVKGRFTISRDNAKNTLYLQMSSLKSEDTAMYYCASGDYWGQGSTLTVSS
VL: DVVMTQTPLSLPVSLGDQASISCRSSQSLVYSNGDTYLHWYLQKPGQSPKLLIYKVSNRFSGVPDRFSGSGSGTDFTLKISRVEAEDLGVYFCSQSTHVPWTFGGGTKLEIKR
Question: For B1, which binding [1] is on record?
Answer: binds

Question: And the binding [2]?
Answer: binds

Question: What about the binding [3] of the same binder?
Answer: binds

B2: humanized antibody C2 HuVH2/HuVK1 (antibody, human IgG4 S228P, kappa, V domains shown)
VH: EVQLVESGGGLVQPGGSLRLSCAASGFTFSSYGMSWVRQAPGKGLEWVASINSNGGSTYYPDSVKGRFTISRDNAKNSLYLQMNSLRAEDTAVYYCASGDYWGQGTTVTVSS
VL: DIVMTQSPLSLPVTPGEPASISCRSSQSLVYSNGDTYLHWYLQKPGQSPQLLIYKVSNRFSGVPDRFSGSGSGTDFTLKISRVEAEDVGVYYCSQSTHVPWTFGQGTKVEIKR
Question: For B2, which binding [3] is on record?
Answer: binds

B3: humanized antibody C2 HuVH2/HuVK4 (antibody, human IgG4 S228P, kappa, V domains shown)
VH: EVQLVESGGGLVQPGGSLRLSCAASGFTFSSYGMSWVRQAPGKGLEWVASINSNGGSTYYPDSVKGRFTISRDNAKNSLYLQMNSLRAEDTAVYYCASGDYWGQGTTVTVSS
VL: DIVMTQSPLSLPVTPGEPASISCRSSQSLVYSNGDTYLHWYLQKPGQSPKLLIYKVSNRFSGVPDRFSGSGSGTDFTLKISRVEAEDVGVYFCSQSTHVPWTFGQGTKVEIKR
Question: B3 was tested. Which binding [3] did it give?
Answer: binds

B4: VK-R antibody (mC2 VK-R combined with chimeric C2 VH) (antibody, V domains shown)
VH: EVQLVESGGGLVQPGGSLKLSCAASGFTFSSYGMSWVRQTPDKRLELVASINSNGGSTYYPDSVKGRFTISRDNAKNTLYLQMSSLKSEDTAMYYCASGDYWGQGSTLTVSS
VL: DVVMTQTPLSLPVSLGDQASISCRSSQSLVYSNGDTYLHWYLQKPGQSPKLLIYRVSNRFSGVPDRFSGSGSGTDFTLKISRVEAEDLGVYFCSQSTHVPWTFGGGTKLEIK
Question: For B4, which binding [2] is on record?
Answer: binds

B5: VK-S antibody (mC2 VK-S combined with chimeric C2 VH) (antibody, V domains shown)
VH: EVQLVESGGGLVQPGGSLKLSCAASGFTFSSYGMSWVRQTPDKRLELVASINSNGGSTYYPDSVKGRFTISRDNAKNTLYLQMSSLKSEDTAMYYCASGDYWGQGSTLTVSS
VL: DVVMTQTPLSLPVSLGDQASISCRSSQSLVYSNGDTYLHWYLQKPGQSPKLLIYKVSSRFSGVPDRFSGSGSGTDFTLKISRVEAEDLGVYFCSQSTHVPWTFGGGTKLEIK
Question: For B5, which binding [2] is on record?
Answer: binds

B6: C2 HuVH AF version 2 combined with the chimeric C2 kappa chain (antibody, V domains shown)
VH: EVQLVESGGGLVQPGGSLRLSCAASGFTFSSYGMSWVRQAPGKGLEWVASINSNGGSTYYPDSVKGRFTISRDNAKNSLYLQMNSLRAEDTAVYYCASGDYWGQGTTVTVSS
VL: DVVMTQTPLSLPVSLGDQASISCRSSQSLVYSNGDTYLHWYLQKPGQSPKLLIYKVSNRFSGVPDRFSGSGSGTDFTLKISRVEAEDLGVYFCSQSTHVPWTFGGGTKLEIK
Question: With B6 as the binder, how does the binding [2] read?
Answer: binds

B7: humanized monoclonal antibody hC2 (antibody, human IgG4 S228P, kappa, V domains shown)
VH: EVQLVESGGGLVQPGGSLRLSCAASGFTFSSYGMSWVRQAPGKGLELVASINSNGGSTYYPDSVKGRFTISRDNAKNSLYLQMNSLRAEDTAVYYCASGDYWGQGTTVTVSS
VL: DIVMTQSPLSLPVTPGEPASISCRSSQSLVYSNGDTYLHWYLQKPGQSPQLLIYKVSNRFSGVPDRFSGSGSGTDFTLKISRVEAEDVGVYYCSQSTHVPWTFGQGTKVEIKR
Question: Which binding [4] does the source give for B7 here?
Answer: binds

Question: What about the binding [5] of the same binder?
Answer: binds

Question: And the binding [6]?
Answer: binds

Question: And the binding [7]?
Answer: binds

Question: And the binding [8]?
Answer: binds

Question: What about the binding [9] of the same binder?
Answer: binds

Question: And the binding [10]?
Answer: binds

Question: What about the binding [11] of the same binder?
Answer: binds

Question: What about the binding [12] of the same binder?
Answer: binds

From patent publication US20090093002A1
